Data reported in US8367707B2, “Pest control agents” (Meiji Seika Pharma Co., Ltd., priority 2005, dated 2013).
Some of these results come from one statement about several compounds together.

Columns and labels:
Myzus persicae [1] = test: Test Example 1: pesticidal effect against Myzus persicae, cabbage leaf disk, 20 ppm; assay type: in vivo; settings: first instar larvae on cabbage leaf disk, three days, 25° C.
Myzus persicae [2] = test: Test Example 2: pesticidal effect against Myzus persicae, cabbage leaf disk, 0.156 ppm; assay type: in vivo; settings: first instar larvae on cabbage leaf disk, three days, 25° C.

SMILES	death rate of larvae (Myzus persicae [1])	death rate of larvae (Myzus persicae [2])
CC(=O)OCC1(C)C(OC(C)=O)CCC2(C)C1CC(OC1CCCCO1)C1(C)Oc3cc(-c4cccnc4)oc(=O)c3C(O)C21 (mixture of isomers) [Compound 45]	not less than 80%	not less than 80%
CC(=O)OCC1(C)C(OC(C)=O)CCC2(C)C1CC(OC(=O)C(C)C)C1(C)Oc3cc(-c4cccnc4)oc(=O)c3C(O)C21 (stereo not drawn) [Compound 12]	not less than 80%	not less than 80%
CC(=O)OCC1(C)C(OC(C)=O)CCC2(C)C1CC(OC(=O)c1ccccc1)C1(C)Oc3cc(-c4cccnc4)oc(=O)c3C(O)C21 (stereo not drawn) [Compound 23]	not less than 80%	not less than 80%
CC(=O)OCC1(C)C(OC(C)=O)CCC2(C)C1CC(OC(=O)c1cccnc1)C1(C)Oc3cc(-c4cccnc4)oc(=O)c3C(O)C21 (stereo not drawn) [Compound 28]	not less than 80%	not less than 80%
CCCC(=O)OCC1(C)C(OC(C)=O)CCC2(C)C1CC(OC(C)=O)C1(C)Oc3cc(-c4cccnc4)oc(=O)c3C(O)C21 (stereo not drawn) [Compound 54]	not less than 80%	not less than 80%
CCCCC(=O)OCC1(C)C(OC(C)=O)CCC2(C)C1CC(OC(C)=O)C1(C)Oc3cc(-c4cccnc4)oc(=O)c3C(O)C21 (stereo not drawn) [Compound 56]	not less than 80%	not less than 80%
CCCC(=O)OCC1(C)C(OC(=O)CCC)CCC2(C)C1CC(OC(=O)CCC)C1(C)Oc3cc(-c4cccnc4)oc(=O)c3C(O)C21 (stereo not drawn) [Compound 82]	not less than 80%	not less than 80%
CCCCC(=O)OCC1(C)C(OC(=O)CCCC)CCC2(C)C1CC(OC(=O)CCCC)C1(C)Oc3cc(-c4cccnc4)oc(=O)c3C(O)C21 (stereo not drawn) [Compound 85]	not less than 80%	not less than 80%
CCCCC(=O)OC1CCC2(C)C(CC(OC(=O)CCCC)C3(C)Oc4cc(-c5cccnc5)oc(=O)c4C(O)C23)C1(C)COS(C)(=O)=O (stereo not drawn) [Compound 86]	not less than 80%	not less than 80%
CC(C)C(=O)OCC1(C)C(OC(=O)C(C)C)CCC2(C)C1CC(OC(=O)C(C)C)C1(C)Oc3cc(-c4cccnc4)oc(=O)c3C(O)C21 (stereo not drawn) [Compound 90]	not less than 80%	not less than 80%
CCCC(=O)OCC1(C)C(OC(C)=O)CCC2(C)C1CC(OC(C)=O)C1(C)Oc3cc(-c4cccnc4)oc(=O)c3C(OC(C)=O)C21 (stereo not drawn) [Compound 164]	not less than 80%	not less than 80%
CC(=O)OCC1(C)C(OC(C)=O)CCC2(C)C3C(=O)c4c(cc(-c5cccnc5)oc4=O)OC3(C)C(=O)CC12 (stereo not drawn) [Compound 201]	not less than 80%	not less than 80%
CCC(=O)OCC1(C)C(OC(=O)CC)CCC2(C)C1CC(OC(=O)c1cccnc1)C1(C)Oc3cc(-c4cccnc4)oc(=O)c3C(O)C21 (stereo not drawn) [Compound 205]	not less than 80%	not less than 80%
CCC(=O)OCC1(C)C(OC(=O)CC)CCC2(C)C1CC(OC(=O)C(C)C)C1(C)Oc3cc(-c4cccnc4)oc(=O)c3C(O)C21 (stereo not drawn) [Compound 206]	not less than 80%	not less than 80%
CCC(=O)OCC1(C)C(OC(=O)CC)CCC2(C)C1CC(OC(=O)C(C)(C)C)C1(C)Oc3cc(-c4cccnc4)oc(=O)c3C(O)C21 (stereo not drawn) [Compound 207]	not less than 80%	not less than 80%
CCC(=O)OCC1(C)C(OC(=O)CC)CCC2(C)C1CC(OC(=O)n1ccnc1)C1(C)Oc3cc(-c4cccnc4)oc(=O)c3C(O)C21 (stereo not drawn) [Compound 209]	not less than 80%	–
CCCNC(=O)OC1CC2C(C)(COC(=O)CC)C(OC(=O)CC)CCC2(C)C2C(O)c3c(cc(-c4cccnc4)oc3=O)OC12C (stereo not drawn) [Compound 210]	not less than 80%	–
CCC(=O)OCC1(C)C(OC(=O)CC)CCC2(C)C1CC(OC1CCCCO1)C1(C)Oc3cc(-c4cccnc4)oc(=O)c3C(O)C21 (stereo not drawn) [Compound 211]	not less than 80%	–
CCC(=O)OCC1(C)C(OC(=O)CC)CCC2(C)C1CC(OC(=O)c1ccc(Cl)nc1)C1(C)Oc3cc(-c4cccnc4)oc(=O)c3C(O)C21 (stereo not drawn) [Compound 212]	not less than 80%	not less than 80%
CCC(=O)OCC1(C)C(OC(=O)CC)CCC2(C)C1CC(OC(=O)C1CCC1)C1(C)Oc3cc(-c4cccnc4)oc(=O)c3C(O)C21 (stereo not drawn) [Compound 214]	not less than 80%	–
C=CC(=O)OC1CC2C(C)(COC(=O)CC)C(OC(=O)CC)CCC2(C)C2C(O)c3c(cc(-c4cccnc4)oc3=O)OC12C (stereo not drawn) [Compound 215]	not less than 80%	–
CCC(=O)OCC1(C)C(OC(=O)CC)CCC2(C)C1CC(OC(=O)c1ccncc1)C1(C)Oc3cc(-c4cccnc4)oc(=O)c3C(O)C21 (stereo not drawn) [Compound 216]	not less than 80%	–
CCC(=O)OCC1(C)C(OC(=O)CC)CCC2(C)C1CC(OC(=O)c1ccccn1)C1(C)Oc3cc(-c4cccnc4)oc(=O)c3C(O)C21 (stereo not drawn) [Compound 217]	not less than 80%	not less than 80%

SMILES	death rate of larvae (Myzus persicae [1])	death rate of larvae (Myzus persicae [2])
CC1(COC(=O)c2ccccc2)C(OC(=O)c2ccccc2)CCC2(C)C1CC(OC(=O)c1ccccc1)C1(C)Oc3cc(-c4cccnc4)oc(=O)c3C(O)C21 (stereo not drawn) [Compound 220]	not less than 80%	–
CCC(=O)OCC1(C)C(OC(=O)CC)CCC2(C)C1CC(OC(=O)c1ccc(C(F)(F)F)nc1)C1(C)Oc3cc(-c4cccnc4)oc(=O)c3C(O)C21 (stereo not drawn) [Compound 221]	not less than 80%	–
CC1(COC(=O)CC(F)(F)F)C(OC(=O)CC(F)(F)F)CCC2(C)C1CC(OC(=O)CC(F)(F)F)C1(C)Oc3cc(-c4cccnc4)oc(=O)c3C(O)C21 (stereo not drawn) [Compound 223]	not less than 80%	–
CCC(=O)OCC1(C)C(OC(=O)CC)CCC2(C)C1CC(OC(=O)CC)C1(C)Oc3cc(-c4ccc(Cl)nc4)oc(=O)c3C(O)C21 (stereo not drawn) [Compound 226]	not less than 80%	–
CCC(=O)OCC1(C)C(OC(=O)CC)CCC2(C)C1CC(OC(=O)c1ncccc1C(=O)c1ccccc1)C1(C)Oc3cc(-c4cccnc4)oc(=O)c3C(O)C21 (stereo not drawn) [Compound 230]	not less than 80%	–
CC1(COC(=O)CC2CC2)C(OC(=O)CC2CC2)CCC2(C)C1CC(OC(=O)CC1CC1)C1(C)Oc3cc(-c4cccnc4)oc(=O)c3C(OC(=O)CC3CC3)C21 (stereo not drawn) [Compound 236]	not less than 80%	–
CCC(=O)OCC1(C)C(OC(=O)CC)CCC2(C)C1CC(OC(=O)c1cnccc1C(=O)OC)C1(C)Oc3cc(-c4cccnc4)oc(=O)c3C(O)C21 (stereo not drawn) [Compound 241]	not less than 80%	–
CCC(=O)OCC1(C)C(OC(=O)CC)CCC2(C)C1CC(OC(=O)c1ccccc1C#N)C1(C)Oc3cc(-c4cccnc4)oc(=O)c3C(O)C21 (stereo not drawn) [Compound 243]	not less than 80%	–
CCC(=O)OCC1(C)C(OC(=O)CC)CCC2(C)C1CC(OC(=O)c1ccccc1C(F)(F)F)C1(C)Oc3cc(-c4cccnc4)oc(=O)c3C(O)C21 (stereo not drawn) [Compound 244]	not less than 80%	–
CCC(=O)OCC1(C)C(OC(=O)CC)CCC2(C)C1CC(OC(=O)c1ccccc1F)C1(C)Oc3cc(-c4cccnc4)oc(=O)c3C(O)C21 (stereo not drawn) [Compound 245]	not less than 80%	–
CCC(=O)OCC1(C)C(OC(=O)CC)CCC2(C)C1CC(OC(=O)c1ccc(C)nc1Cl)C1(C)Oc3cc(-c4cccnc4)oc(=O)c3C(O)C21 (stereo not drawn) [Compound 248]	not less than 80%	–
CCC(=O)OCC1(C)C(OC(=O)CC)CCC2(C)C1CC(OC(=O)c1ncccc1SC(C)(C)C)C1(C)Oc3cc(-c4cccnc4)oc(=O)c3C(O)C21 (stereo not drawn) [Compound 251]	not less than 80%	–
CCC(=O)OCC1(C)C(OC(=O)CC)CCC2(C)C1CC(OC(=O)c1cscn1)C1(C)Oc3cc(-c4cccnc4)oc(=O)c3C(O)C21 (stereo not drawn) [Compound 254]	not less than 80%	–
CCC(=O)OCC1(C)C(OC(=O)CC)CCC2(C)C1CC(OC(=O)c1sccc1Cl)C1(C)Oc3cc(-c4cccnc4)oc(=O)c3C(O)C21 (stereo not drawn) [Compound 255]	not less than 80%	–
CCC(=O)OCC1(C)C(OC(=O)CC)CCC2(C)C1CC(OC(=O)c1cccc(Cl)n1)C1(C)Oc3cc(-c4cccnc4)oc(=O)c3C(O)C21 (stereo not drawn) [Compound 257]	not less than 80%	–
CCC(=O)OCC1(C)C(OC(=O)CC)CCC2(C)C1CC(OC(=O)c1cc3ccccc3n1C)C1(C)Oc3cc(-c4cccnc4)oc(=O)c3C(O)C21 (stereo not drawn) [Compound 259]	not less than 80%	–
CCC(=O)OCC1(C)C(OC(=O)CC)CCC2(C)C1CC(OC(=O)c1ncccc1Cl)C1(C)Oc3cc(-c4cccnc4)oc(=O)c3C(O)C21 (stereo not drawn) [Compound 260]	not less than 80%	–
CCC(=O)OCC1(C)C(OC(=O)CC)CCC2(C)C1CC(OC(=O)c1ccc(C#N)cc1)C1(C)Oc3cc(-c4cccnc4)oc(=O)c3C(O)C21 (stereo not drawn) [Compound 263]	not less than 80%	–
CCC(=O)OCC1(C)C(OC(=O)CC)CCC2(C)C1CC(OC(=O)CSc1ccncc1)C1(C)Oc3cc(-c4cccnc4)oc(=O)c3C(O)C21 (stereo not drawn) [Compound 268]	not less than 80%	–
CC12Oc3cc(-c4cccnc4)oc(=O)c3C(O)C1C1(C)CCC3OC(c4ccccc4)OCC3(C)C1CC2=O (stereo not drawn) [Compound 272]	not less than 80%	–
COc1ccc(C2OCC3(C)C(CCC4(C)C5C(O)c6c(cc(-c7cccnc7)oc6=O)OC5(C)C(=O)CC34)O2)cc1 (stereo not drawn) [Compound 273]	not less than 80%	–
CCCCC(=O)OC1c2c(cc(-c3cccnc3)oc2=O)OC2(C)C(OC(=O)CCCC)CC3C4(C)COC(=O)OC4CCC3(C)C12 (stereo not drawn) [Compound 274]	not less than 80%	–
CC(=O)OCC1(C)C(OC(C)=O)CCC2(C)C1CC(OC(C)=O)C1(C)Oc3cc(-c4cccnc4)oc(=O)c3C(O)C21 (stereo not drawn) [pyripyropene A]	not less than 80%	–
